Test results as given in publication PMC6588571.
Results are given in words; binding and its absence hold for the method and conditions named. For part of these data: Binding seen in cells or lysates may run through a third protein. Some entries that bind do so weakly or less than the wild type. Sequences can lack the tags named with a protein.

T1: Hrr25(1–394).K38R fused to the Gal4 DNA-binding domain (S. cerevisiae) (UniProt P29295)
T1 sequence: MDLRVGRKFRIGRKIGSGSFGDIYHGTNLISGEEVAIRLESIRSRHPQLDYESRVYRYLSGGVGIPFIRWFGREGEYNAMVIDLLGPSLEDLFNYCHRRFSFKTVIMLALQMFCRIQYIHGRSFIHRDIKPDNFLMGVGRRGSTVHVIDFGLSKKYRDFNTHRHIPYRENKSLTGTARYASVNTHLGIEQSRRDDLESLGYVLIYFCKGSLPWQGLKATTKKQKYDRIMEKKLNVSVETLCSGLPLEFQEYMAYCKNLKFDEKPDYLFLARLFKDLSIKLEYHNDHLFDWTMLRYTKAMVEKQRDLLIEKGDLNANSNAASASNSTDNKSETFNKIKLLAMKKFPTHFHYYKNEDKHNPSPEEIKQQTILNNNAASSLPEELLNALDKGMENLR

T2: Hrr25(1–394) fused to the Gal4 DNA-binding domain (S. cerevisiae) (UniProt P29295)
T2 sequence: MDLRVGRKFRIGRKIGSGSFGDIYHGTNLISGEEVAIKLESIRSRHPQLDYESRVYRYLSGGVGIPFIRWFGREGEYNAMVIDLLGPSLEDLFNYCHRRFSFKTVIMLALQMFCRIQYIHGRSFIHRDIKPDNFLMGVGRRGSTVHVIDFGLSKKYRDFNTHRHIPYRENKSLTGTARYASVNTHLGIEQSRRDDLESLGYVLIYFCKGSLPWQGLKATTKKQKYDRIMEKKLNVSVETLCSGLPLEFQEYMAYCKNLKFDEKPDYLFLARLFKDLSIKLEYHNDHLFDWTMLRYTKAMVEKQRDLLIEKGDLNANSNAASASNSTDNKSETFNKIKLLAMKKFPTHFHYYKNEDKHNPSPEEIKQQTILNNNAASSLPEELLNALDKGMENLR

T3: Enp1 bystin domain (aa 155–470) (S. cerevisiae) (UniProt P38333)
T3 sequence: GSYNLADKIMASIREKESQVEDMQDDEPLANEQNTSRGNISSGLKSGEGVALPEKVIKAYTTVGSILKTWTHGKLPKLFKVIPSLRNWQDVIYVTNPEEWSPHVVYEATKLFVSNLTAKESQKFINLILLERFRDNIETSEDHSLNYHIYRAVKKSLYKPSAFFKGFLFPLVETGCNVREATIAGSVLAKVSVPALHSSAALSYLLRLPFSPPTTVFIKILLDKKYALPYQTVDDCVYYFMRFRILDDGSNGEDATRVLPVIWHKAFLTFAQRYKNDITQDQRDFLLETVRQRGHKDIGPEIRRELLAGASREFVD

T4: full-length Hrr25 (494 aa) fused to the Gal4 DNA-binding domain (S. cerevisiae) (UniProt P29295)
T4 sequence: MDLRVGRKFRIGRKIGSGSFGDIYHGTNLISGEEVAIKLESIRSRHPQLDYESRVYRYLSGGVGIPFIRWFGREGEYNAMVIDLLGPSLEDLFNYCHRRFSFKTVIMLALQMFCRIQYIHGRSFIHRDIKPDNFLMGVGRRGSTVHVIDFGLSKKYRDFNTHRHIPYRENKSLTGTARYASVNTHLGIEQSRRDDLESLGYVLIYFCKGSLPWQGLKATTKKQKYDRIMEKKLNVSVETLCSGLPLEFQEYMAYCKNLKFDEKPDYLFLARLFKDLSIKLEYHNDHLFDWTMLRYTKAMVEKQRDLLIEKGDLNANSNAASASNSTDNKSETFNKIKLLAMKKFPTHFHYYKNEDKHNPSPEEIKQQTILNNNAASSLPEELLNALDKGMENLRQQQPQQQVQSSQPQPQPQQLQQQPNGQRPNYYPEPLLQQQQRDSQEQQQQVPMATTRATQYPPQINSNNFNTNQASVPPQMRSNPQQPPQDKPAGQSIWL

T5: C-terminally TAP-tagged Tsr1 (S. cerevisiae), Q07381
T5 chain: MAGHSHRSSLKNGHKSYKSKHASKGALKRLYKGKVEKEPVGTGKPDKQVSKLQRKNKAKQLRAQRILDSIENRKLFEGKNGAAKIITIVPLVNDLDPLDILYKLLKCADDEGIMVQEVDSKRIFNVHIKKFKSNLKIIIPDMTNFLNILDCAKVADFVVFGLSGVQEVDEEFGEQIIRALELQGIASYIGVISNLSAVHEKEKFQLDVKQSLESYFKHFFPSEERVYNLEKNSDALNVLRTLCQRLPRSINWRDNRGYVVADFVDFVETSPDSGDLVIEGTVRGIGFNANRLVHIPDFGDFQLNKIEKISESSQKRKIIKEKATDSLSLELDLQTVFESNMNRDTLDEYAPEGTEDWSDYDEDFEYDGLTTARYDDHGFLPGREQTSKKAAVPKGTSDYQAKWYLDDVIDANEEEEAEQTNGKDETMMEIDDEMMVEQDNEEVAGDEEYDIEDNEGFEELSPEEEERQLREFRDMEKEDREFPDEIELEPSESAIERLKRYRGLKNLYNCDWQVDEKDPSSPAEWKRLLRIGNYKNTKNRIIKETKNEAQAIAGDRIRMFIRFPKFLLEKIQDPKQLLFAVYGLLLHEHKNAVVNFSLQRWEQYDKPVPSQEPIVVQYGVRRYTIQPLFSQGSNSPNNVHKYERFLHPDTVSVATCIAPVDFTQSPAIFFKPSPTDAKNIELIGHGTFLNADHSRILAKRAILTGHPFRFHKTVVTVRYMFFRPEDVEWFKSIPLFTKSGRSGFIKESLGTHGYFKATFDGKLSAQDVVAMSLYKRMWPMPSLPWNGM


Assays:
[1] = target: T1, Hrr25(1–394).K38R fused to the Gal4 DNA-binding domain (S. cerevisiae); assay: two-hybrid; Y2H strains with Hrr25(1–394).K38R-BD and Ltv1 constructs-AD, transformed with empty plasmid or a URA3 plasmid for ENP1 overexpression under the ADH1 promoter; spotted on SDC-Leu-Trp-Ura, SDC-His-Leu-Trp-Ura and SDC-Ade-Leu-Trp-Ura
[2] = target: T1, Hrr25(1–394).K38R fused to the Gal4 DNA-binding domain (S. cerevisiae); assay: two-hybrid; baits fused to the GAL4 DNA-binding domain, preys fused to the GAL4 activation domain, co-transformed into reporter strain PJ69-4A; ten-fold serial dilutions spotted on SDC-Trp-Leu, SDC-Trp-Leu-His (growth: weak interaction) and SDC-Trp-Leu-Ade (growth: strong interaction)
[3] = target: T2, Hrr25(1–394) fused to the Gal4 DNA-binding domain (S. cerevisiae); assay: as above
[4] = target: T3, Enp1 bystin domain (aa 155–470) (S. cerevisiae); assay: as above
[5] = target: T4, full-length Hrr25 (494 aa) fused to the Gal4 DNA-binding domain (S. cerevisiae); assay: as above
[6] = target: T5, C-terminally TAP-tagged Tsr1 (S. …); assay: co-IP; Tsr1-TAP pre-40S particles from yeast lysate bound to IgG beads, eluted with TEV protease, western blotting; wild-type, rps20Δloop, rio2.D253A and ltv1 phosphomutant strains; in the ATP assays the bound particles were incubated with or without 1 mM ATP for 30 min at 4 °C (50 mM TRIS pH 7.5, 100 mM NaCl, 5 mM MgCl2, 0.075% NP-40, 1 mM DTT) and washed before elution; conditions: remark: other sources report otherwise

Row | binding [1] | binding [2] | binding [3] | binding [4] | binding [5] | binding [6] | Binder
1 | binds | binds | binds | binds | binds |  | Ltv1 fused to the Gal4 activation domain (protein, UniProt P34078 1-463) MSKKFSSKNSQRYVVVHRPHDDPSFYDTDASAHVLVPVSNPNKTSPEADLRKKDVSSTKPKGRRAHVGEAALYGINFDDSEYDYTQHLKPIGLDPENSIFIASKGNEQKVEKKNIEDLFIEPKYRRDEIEKDDALPVFQRGMAKPEYLLHQQDTTDEIRGFKPDMNPALREVLEALEDEAYVVNDDVVVEDISKKTQLQGDNYGEEEKEDDIFAQLLGSGEAKDEDEFEDEFDEWDIDNVENFEDENYVKEMAQFDNIENLEDLENIDYQADVRRFQKDNSILEKHNSDDEFSNAGLDSVNPSEEEDVLGELPSIQDKSKTGKKKRKSRQKKGAMSDVSGFSMSSSAIARTETMTVLDDQYDQIINGYENYEEELEEDEEQNYQPFDMSAERSDFESMLDDFLDNYELESGGRKLAKKDKEIERLKEAADEVSKGKLSQRRNRERQEKKKLEKVTNTLSSLKF
2 |  |  |  |  |  | binds | Nob1 (endogenous), Q08444 1-459 (enzyme) MTENQTAHVRALILDATPLITQSYTHYQNYAQSFYTTPTVFQEIKDAQARKNLEIWQSLGTLKLVHPSENSIAKVSTFAKLTGDYSVLSANDLHILALTYELEIKLNNGDWRLRKKPGDALDASKADVGTDGKQKLTEDNKKEEDSESVPKKKNKRRGGKKQKAKREAREAREAENANLELESKAEEHVEEAGSKEQICNDENIKESSDLNEVFEDADDDGDWITPENLTEAIIKDSGEDTTGSLGVEASEEDRHVALNRPENQVALATGDFAVQNVALQMNLNLMNFMSGLKIKRIRNYMLRCHACFKIFPLPKDGKPKHFCASCGGQGTLLRCAVSVDSRTGNVTPHLKSNFQWNNRGNRYSVASPLSKNSQKRYGKKGHVHSKPQENVILREDQKEYEKVIKQEEWTRRHNEKILNNWIGGGSADNYISPFAITGLKQHNVRIGKGRYVNSSKRRS
